Reference: PubChem BioAssay AID1224826 (NIAID, 2016)

Purpose: 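Regulators of Tlr4 signalling leading to Tnf-alpha expression in macrophages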 (primary screen)
Cell system: RAW264.7 G9 macrophages from mouse bearing reporters for p65 (GFP) and the Tnf promoter (mCherry)
Knock-down reagent: siRNA pool against mouse genes, 100 nM
Time to read-out: 16 h of LPS stimulation, after 2 days of siRNA transfection
Treatment: bacterial lipopolysaccharide (Salmonella minnesota R595), 10 ng/ml
Detection: 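Nuclear mCherry signal of the Tnf promoter reporter measured by imaging after background removal, scaled to each plate median and turned into robust z-scores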
Scale: Tnf reporter robust z-score: higher = stronger Tnf promoter reporter signal after LPS
Hit rule: 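a well counts as active at a score of -1.3 or below (Tlr4 knock-down control median) or above 3 (raised signal); controls and wells holding fewer than 50 cells are excluded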
Meaning of the calls: active = Tnf reporter clearly lowered or raised; inactive = no clear change in Tnf reporter
This is an unselected part of about 17,000 reagents tested. Of all reagents, about 1,110 (6.6%) are marked active. 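Active means lowered or raised reporter signal; replicate intensities are raw and not normalised per plate.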 Entries without a mark were called inactive. Not all columns of the deposit are shown.

Against Ccdc198 [SID315472824], the values are Tnf reporter robust z-score -0.02; fewer than 50 cells in well enough cells in well. Cdh3 [SID315465901] showed Tnf reporter robust z-score -0.29; fewer than 50 cells in well enough cells in well. Against Nup88 [SID315468679] the deposit lists Tnf reporter robust z-score -0.79; fewer than 50 cells in well enough cells in well. Silencing of Or5p50 [SID315480102] came out at: Tnf reporter robust z-score 0.89; fewer than 50 cells in well enough cells in well. Against Polr2h [SID315479839] the deposit lists Tnf reporter robust z-score -0.71; fewer than 50 cells in well enough cells in well. Silencing of Lyrm1 [SID315474803] gave: fewer than 50 cells in well fewer than 50 cells per well; well left out of calls.

After knock-down of Ciao2a [SID315473473], the record shows Tnf reporter robust z-score 0.86; fewer than 50 cells in well enough cells in well. With knock-down of Galnt18 [SID315479098], the screen gave Tnf reporter robust z-score 1.24; fewer than 50 cells in well enough cells in well. Cxcr6 [SID315475747] showed Tnf reporter robust z-score -0.24; fewer than 50 cells in well enough cells in well.

Quoted from above (2 entries):
Nup88 [SID315468679] | Tnf reporter robust z-score = -0.79; fewer than 50 cells in well = enough cells in well
Or5p50 [SID315480102] | Tnf reporter robust z-score = 0.89; fewer than 50 cells in well = enough cells in well

The list goes on.
For 1500015L24Rik [SID315473692], the entry reads fewer than 50 cells in well fewer than 50 cells per well; well left out of calls. After knock-down of Acan [SID315465343] the results were Tnf reporter robust z-score -0.76; fewer than 50 cells in well enough cells in well. Knock-down of Rimoc1 [SID315476527] came out at: Tnf reporter robust z-score -0.27; fewer than 50 cells in well enough cells in well. With knock-down of Lrsam1 [SID315478600], the record shows Tnf reporter robust z-score -1.09; fewer than 50 cells in well enough cells in well. With knock-down of Dpep1 [SID315466371], the record shows Tnf reporter robust z-score 0.37; fewer than 50 cells in well enough cells in well. Depletion of Cdc50b [SID315479389] resulted in: Tnf reporter robust z-score -0.5; fewer than 50 cells in well enough cells in well.

After knock-down of Thbs4 [SID315469708], the screen gave Tnf reporter robust z-score 0.75; fewer than 50 cells in well enough cells in well. Depletion of Yipf1 [SID315478791] gave: Tnf reporter robust z-score 0.2; fewer than 50 cells in well enough cells in well. For Trp63 [SID315469833], the entry reads Tnf reporter robust z-score -0.11; fewer than 50 cells in well enough cells in well. Depletion of Grid2 [SID315467028] came out at: Tnf reporter robust z-score 1.8; fewer than 50 cells in well enough cells in well. After knock-down of Elf4 [SID315471576] the results were Tnf reporter robust z-score -2.24 (active); fewer than 50 cells in well enough cells in well. Against Or5d43 [SID315481945], the values are Tnf reporter robust z-score -0.65; fewer than 50 cells in well enough cells in well.

Chrna2 [SID315476949] scored Tnf reporter robust z-score 0.36; fewer than 50 cells in well enough cells in well. With knock-down of Tgfbr1 [SID315469693], the screen gave Tnf reporter robust z-score 0.15; fewer than 50 cells in well enough cells in well. With knock-down of Abhd2 [SID315471261], the screen gave Tnf reporter robust z-score -0.28; fewer than 50 cells in well enough cells in well. With knock-down of Aurkaip1 [SID315472199], the record shows Tnf reporter robust z-score 0.79; fewer than 50 cells in well enough cells in well. After knock-down of Megf11 [SID315477837] the results were Tnf reporter robust z-score -0.3; fewer than 50 cells in well enough cells in well. Against Dnah1 [SID315476871], the values are Tnf reporter robust z-score -1.96 (active); fewer than 50 cells in well enough cells in well.

Against Dnah1 [SID315478219] the deposit lists Tnf reporter robust z-score -0.87; fewer than 50 cells in well enough cells in well.
